Plain letter strings leave the end groups untold.
Test: peptide made by a vendor
Conditions: whole synthesis, one disulfide bridge, sequence written open

Sequence | final HPLC purity
DREGCRRGWVGQCKAWFN | greater than 95% pure
DVEACGGGWVGHCNYWLR | greater than 95% pure

Source: patent publication US6642353B1 (Chugai Seiyaku Kabushiki Kaisha, priority 2000, dated 2003)
